These are yes or no findings as the source states them, for the method shown. In cells and extracts the contact can be indirect. Here binding means that the protein was enriched with, or labelled near, the bait; the list need not be complete. Tags and fused reporters may be left off the sequences shown.
B1: PSD12 (protein, UniProt Q9D8W5 1-456)
chain: MADGGSERADGRIVKMEVDYSATVDQRLPECEKLAKEGRLQEVIETLLSLEKQTRTASDMVSTSRILVAVVKMCYEAKEWDLLNENIMLLSKRRSQLKQAVAKMVQQCCTYVEEITDLPVKLRLIDTLRMVTEGKIYVEIERARLTKTLATIKEQNGDVKEAASILQELQVETYGSMEKKERVEFILEQMRLCLAVKDYIRTQIISKKINTKFFQEENTENLKLKYYNLMIQLDQHEGSYLSICKHYRAIYDTPCIQAESDKWQQALKSVVLYVILAPFDNEQSDLVHRISSDKKLEEIPKYKDLLKLFTTMELMRWSTLVEDYGVELRKGSSETPATDVFSSTEEGEKRWKDLKSRVVEHNIRIMAKYYTRITMKRMAQLLDLSVDESEAFLSNLVVNKTIFAKVDRLAGVINFQRPKDPNNLLNDWSQKLNSLMSLVNKTTHLIAKEEMIHNLQ
B2: PSD13 (protein, UniProt Q9WVJ2 1-376)
chain: MKDVPAFLQQSQSSGPGQAAVWHRLEELYTKKLWHQLTLEVLDFVQDPCFAQGDGLIKLYENFISEFEHRVNPLSLVEIILHVVRQMTDPNVALTFLEKTREKVKSSDEAVILCKTAIGALKLNIGDLQATKETIEDVEEMLNNLPGVTSVHSRFYDLSSKYYQTIGNHASYYKDALRFLGCVDIKDLPVSEQQERAFTLGLAGLLGEGVFNFGELLMHPVLESLRDTDRQWLIDTLYAFNSGAVDRFQTLKCAWGQQPDLAANEAQLLRKIQLLCLMEMTFTRPANHRQLTFEEIAKSAKITVNKVELLVMKALSVGLVRGSIDEVDKRVHMTWVQPRVLDLQQIKGMKDRLELWCTDVKSMEMLVEHQAQDILT
B3: histone demethylase NO66 (protein, UniProt Q9JJF3 1-603)
chain: MDELPNGNGAALLKRGRGRRRRHPQSQPRGASVLALPLRPRKIRRHRKSAAASRVAALRARALRSEDSDSKVAVASVRGKRKRPAELLEASRSAEPRPVSARPRSASATLPSRVEGWAALSRNLGTAAPPPPGSHADEPGRPRASPLQQVLTELNGIPSSRRRAARLFEWLLAPLPPDHFYRRLWEREAVLVRRQDRSYYEGLFSTADLDSMLRYEDVQFGQHLDAARYVDGRRETLNPPGRALPAAAWSLYRAGCSLRLLCPQAFSPTVWQFLAVLQEQFGSMAGSNVYLTPPDSQGFAPHYDDIEAFVLQLEGRKLWRVYRPRDPSEELALTSSPNFSQEDLGEPVLQTVLEPGDLLYFPRGFIHQAECQDGVHSLHLTLSTYQRNTWGDFLEAVLPLAVQAAIEENVEFRRGLPRDFMDYMGAQHSDSKDPRRTAFMEKVRVLVARLGHFAPVDAVADQRAKDFIHDSLPPVLTDRERALSVHGLPVRWEAGEPVNVGAQLTTETQVHMLQDGVARLVGEGGRLFLYHTVENSRVYHLEEPKCLEIHPQQADAMELLLRSYPEFVRVGDLPCDSVEDQLSLATMLYDKGLLLTKTPLVPS
B4: NFX1 (protein, UniProt B1AY10 1-1114)
chain: MAEAPPVSGTFKFNTDAAEFIPQERKTSGLNCGTQRRLDSSRIGRRNYSSSPPCHLPRHIPYEDISAVHQHSYASGSKPKSPQGFFQSSNKSLKNHGLQNQPWQKARNEKHQNRNKKAQGLSEQTSDTSSLESVARSESGTNPREHSPSESEKEVVIADPRGAKPKKAAQLTYNYGRGPKAKGRLRSEWGNRMSPKSEDENTRPVAISHTDSSDASCRKPVVDPCVCRRNEQRRYPQKRPPWEVEGARPRPGRNPPKQESQRHINAGPKTNMSPIPKDNLRERPTKSACDTGNLAVVSKSSRRVNQEKTAVRRQDPQVLSPFPRGKQNHMLKNVETHTGSLIEQLTTEKYECMVCCELVQVTAPVWSCQSCFHVFHLNCIKKWARSPASHADGQSGWRCPACQNVSAHVPNTYTCFCGKVKNPEWSRNEIPHSCGEVCRKKQPGQDCPHSCNLLCHPGPCPPCPAFTTKTCECGRTRHTVRCGQPVSVHCSNACENILNCGQHHCAELCHGGQCQPCRIILNQVCYCGSTSRDVLCGTDVGKSDGFGDFSCLKICGKDLKCGSHTCSQVCHPQPCQPCPRLPHLVRYCPCGQTPLSQLLEHGSNARKTCMDPVPSCGKVCGKPLACGSSDFIHTCEKLCHEGDCGPCSRTSVISCRCSFRTKELPCTSLKSEDATFMCDKRCNKKRLCGRHKCNEICCVDKEHKCPLICGRKLRCGLHRCEEPCHRGNCQTCWQASFDELTCHCGASVIYPPVPCGTRPPECTQTCARIHECDHPVYHSCHSEEKCPPCTFLTQKWCMGKHELRSNIPCHLVDISCGLPCSAMLPCGMHKCQRLCHKGECLVDEACKQPCTTPRGDCGHPCMAPCHPSLPCPVTACKAKVELQCECGRRKEMVICSEASGTYQRIVAISMASKITDMQLGDSVEISKLITKKEVQQARLQCDEECAALERRKRLAEAFDITDDSDPFNVRSSASKFSDSLKDDARKDLKFVSDVEKEMETLVEAVNKGKNNKKSHCFPPMNRDHRRIIHDLAQVYGLESISYDSEPKRNVVVTAVRGKSVCPPTTLTSVIERETQTRPPPPIPHHRHQADKAPGSSTLQKIVKEAVIDYFDVQD
B5: CCCTC-binding factor (endogenous, mouse striatal cells) (protein, UniProt Q61164 1-736)
chain: MEGEAVEAIVEESETFIKGKERKTYQRRREGGQEEDACHLPQNQTDGGEVVQDVNSSVQMVMMEQLDPTLLQMKTEVMEGTVAPEAEAAVDDTQIITLQVVNMEEQPINIGELQLVQVPVPVTVPVATTSVEELQGAYENEVSKEGLAESEPMICHTLPLPEGFQVVKVGANGEVETLEQGELPPQEDSSWQKDPDYQPPAKKTKKTKKSKLRYTEEGKDVDVSVYDFEEEQQEGLLSEVNAEKVVGNMKPPKPTKIKKKGVKKTFQCELCSYTCPRRSNLDRHMKSHTDERPHKCHLCGRAFRTVTLLRNHLNTHTGTRPHKCPDCDMAFVTSGELVRHRRYKHTHEKPFKCSMCDYASVEVSKLKRHIRSHTGERPFQCSLCSYASRDTYKLKRHMRTHSGEKPYECYICHARFTQSGTMKMHILQKHTENVAKFHCPHCDTVIARKSDLGVHLRKQHSYIEQGKKCRYCDAVFHERYALIQHQKSHKNEKRFKCDQCDYACRQERHMIMHKRTHTGEKPYACSHCDKTFRQKQLLDMHFKRYHDPNFVPAAFVCSKCGKTFTRRNTMARHADNCAGPDGVEGENGGETKKSKRGRKRKMRSKKEDSSDSEENAEPDLDDNEEEEEPAVEIEPEPEPQPQPPPPPQPVAPAPPPAKKRRGRPPGRTNQPKQNQPTAIIQVEDQNTGAIENIIVEVKKEPDAEPAEGEEEEAQAATTDAPNGDLTPEMILSMMDR
B6: serine threonine kinase (STK3) (protein, UniProt Q9JI10 1-497)
chain: MEQPPASKSKLKKLSEDSLTKQPEEVFDVLEKLGEGSYGSVFKAIHKESGQVVAIKQVPVESDLQEIIKEISIMQQCDSPYVVKYYGSYFKNTDLWIVMEYCGAGSVSDIIRLRNKTLTEDEIATILKSTLKGLEYLHFMRKIHRDIKAGNILLNTEGHAKLADFGVAGQLTDTMAKRNTVIGTPFWMAPEVIQEIGYNCVADIWSLGITSIEMAEGKPPYADIHPMRAIFMIPTNPPPTFRKPELWSDDFTDFVKKCLVKSPEQRATATQLLQHPFIKNAKPVSILRDLIAEAMEIKAKRHEEQQRELEEEEENSDEDELDSHTMVKTSSESVGTMRATSTMSEGAQTMIEHNSTMLESDLGTMVINSEEEEEEEEEEEEDGTMKRNATSPQVQRPSFMDYFDKQDFKNKSHENCDQSMREPGPMSNSVFPDNWRVPQDGDFDFLKNLSLEELQMRLKALDPMMEREIEELHQRYSAKRQPILDAMDAKKRRQQNF
B7: nuclear export mediator factor (protein, UniProt Q8CCP0 1-1064)
chain: MKSRFSTVDLRAVLAELNASLLGMRVNNVYDVDNKTYLIRLQKPDFKATLLLESGIRIHTTEFEWPKNMMPSSFAMKCRKHLKSRRLVSAKQLGVDRIVDFQFGSDEAAYHLIIELYDRGNIVLTDYEYLILNILRFRTDEADDVKFAVRERYPIDHARAAEPLLTLERLTEVIAAAPKGEVLKRVLNPLLPYGPALIEHCLIESGFSGNAKVDEKLESKDIEKILVCVQRAEDYLRKTSNFNGKGYIIQKREAKPSLDADKPAEDILTYEEFHPFLFSQHLQCPYIEFESFDKAVDEFYSKIEGQKIDLKALQQEKQALKKLDNVRKDHENRLEALQQAQEIDKLKGELIEMNLQIVDRAIQVVRSALANQIDWTEIGVIVKEAQAQGDPVACAIKELKLQTNHVTMLLRNPYLLSEEEDGDGDASIENSDAEAPKGKKKKQKNKQLQKPQKNKPLLVDVDLSLSAYANAKKYYDHKRYAAKKTQRTVEAAEKAFKSAEKKTKQTLKEVQTVTSIQKARKVYWFEKFLWFISSENYLIIGGRDQQQNEIIVKRYLTPGDIYVHADLHGATSCVIKNPTGEPIPPRTLTEAGTMALCYSAAWDARVITSAWWVYHHQVSKTAPTGEYLTTGSFMIRGKKNFLPPSYLMMGFSFLFKVDESCVWRHRGERKVRVQDEDMETLTSCTSELMAEEMEQLEGGDSSEEETEELHGMPGDVELMTQVDQEDIAVHSGRDELSSEDGEAKAVTKDQEPIGEMKEEEEDTFEYPDTTIDLSHLQSQRPLQKLAPREESLNSNDSKSQGRRHLSAKERREMKKKKLPCESGDLEVIEEKDKERESAVHTEAYQNTSKNVAAGQPMKRGQKSKMKKMKEKYKDQDDEDRELIMKLLASAGSNKEEKGKKGKKGKPKDEPVKKPPQKPRGGQRVLDVVKEPPSLQVLAHDLQDLAVDDPHDDKEEHDLDQQGNEENLFDSLTGQPHPEDVLMFAIPICAPYTIMTNYKYKVKLTPGVQKKGKAAKTALNSFMHSKEATAREKDLFRSVKDTDLSRNIPGKVKVSAPNLLHVKRK
B8: PRP17 (protein, UniProt Q9DC48 1-579)
chain: MSAAIAALAASYGSGSGSESDSDSEGSRCPLPAADSLMHLTKSPSAKLSLTVAVDSAPEVAVKEDLETGVHLDPAVKEVQYNPTYETMFAPEFGPENPFRTQQMAAPRNMLSGYAEPAHINDFMFEQQRRTFATYGYALDPSLDNHQVSAKYIGSVEEAEKNQGLTVFETGQKKTEKRKKFKENDASNIDGFLGPWAKYVDEKDVAKPSEEEQKELDEITAKRQKKGKQEEEKPGEEKTILHVKEMYDYQGRSYLHIPQDVGVNLRSSVPPEKCYLPKKQIHVWSGHTKGVSAVRLFPLSGHLLLSCSMDCKIKLWEVYGDRRCLRTFIGHSKAVRDICFNTAGTQFLSAAYDRYLKLWDTETGQCISRFTNRKVPYCVKFNPDEDKQNLFVAGMSDKKIVQWDIRSGEIVQEYDRHLGAVNTIVFVDENRRFVSTSDDKSLRVWEWDIPVDFKYIAEPSMHSMPAVTLSPNGKWLACQSMDNQILIFGAQNRFRLNKKKIFKGHMVAGYACQVDFSPDMSYVISGDGNGKLNIWDWKTTKLYSRFKAHDKVCIGAVWHPHETSKVITCGWDGLIKLWD

By UniProt entry, the sequences of proteins in these tests, tags left out.
UniProt P38532: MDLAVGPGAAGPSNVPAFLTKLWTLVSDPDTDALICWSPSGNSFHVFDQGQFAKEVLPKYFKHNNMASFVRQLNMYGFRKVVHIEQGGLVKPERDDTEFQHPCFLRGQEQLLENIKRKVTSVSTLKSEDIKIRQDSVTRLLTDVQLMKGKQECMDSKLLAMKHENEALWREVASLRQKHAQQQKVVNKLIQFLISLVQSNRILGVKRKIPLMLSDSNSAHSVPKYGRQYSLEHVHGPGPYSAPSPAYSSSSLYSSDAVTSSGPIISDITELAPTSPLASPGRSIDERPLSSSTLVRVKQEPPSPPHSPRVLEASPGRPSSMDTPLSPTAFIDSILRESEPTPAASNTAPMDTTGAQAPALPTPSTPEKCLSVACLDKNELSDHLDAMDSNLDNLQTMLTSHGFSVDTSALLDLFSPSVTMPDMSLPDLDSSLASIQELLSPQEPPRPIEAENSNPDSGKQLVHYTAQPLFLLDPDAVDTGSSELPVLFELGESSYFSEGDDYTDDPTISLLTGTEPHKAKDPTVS

Target: heat shock transcription factor 1 (endogenous, mouse striatal cells) (mouse (endogenous in STHdh striatal cells)) (UniProt P38532)
Experiment: affinity purification with mass spectrometry; endogenous untagged HSF1 immunoprecipitated with polyclonal anti-HSF1 covalently linked to DynaG beads from STHdh Q7 (control), Q7 heat shock (42 °C, 30 min) and Q111 (HD) lysates, no cross-linker; IgG IP as control; hits at least twofold over IgG, p < 0.05, ProteinTeller probability >= 0.8; quantitative LC-MS/MS

Binder	binding
B1	binds
B2	binds
B3	binds
B4	binds
B5	binds
B6	binds
B7	binds
B8	binds

— publication PMC7948500, “Comparative interactomes of HSF1 in stress and disease reveal a role for CTCF in HSF1-mediated gene regulation” (The Journal of Biological Chemistry, 2020)
